Source: the supplement of paper PMC10849652
This is one part of the list.

Chains of the proteins cited; added tags and fusions are not shown. Lines headed by an entry give the natural chain unless they say otherwise; changes in a name come on top.
UniProt Q9UHB9: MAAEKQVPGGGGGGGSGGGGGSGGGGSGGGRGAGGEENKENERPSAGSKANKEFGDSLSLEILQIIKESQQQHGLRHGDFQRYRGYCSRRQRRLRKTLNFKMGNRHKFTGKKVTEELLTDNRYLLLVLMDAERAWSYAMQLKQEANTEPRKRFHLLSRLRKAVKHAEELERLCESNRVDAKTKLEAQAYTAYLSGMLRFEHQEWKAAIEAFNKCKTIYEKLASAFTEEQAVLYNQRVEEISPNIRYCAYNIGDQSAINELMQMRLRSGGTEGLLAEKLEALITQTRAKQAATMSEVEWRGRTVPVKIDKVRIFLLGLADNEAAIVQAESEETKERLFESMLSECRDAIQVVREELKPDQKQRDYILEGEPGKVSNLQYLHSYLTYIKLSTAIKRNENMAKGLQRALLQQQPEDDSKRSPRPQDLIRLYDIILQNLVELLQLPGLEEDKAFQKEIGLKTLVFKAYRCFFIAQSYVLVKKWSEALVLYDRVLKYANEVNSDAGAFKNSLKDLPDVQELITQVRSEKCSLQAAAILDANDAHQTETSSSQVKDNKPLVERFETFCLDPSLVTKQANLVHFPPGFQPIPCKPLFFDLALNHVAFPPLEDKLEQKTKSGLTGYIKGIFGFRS
UniProt Q8WXA9: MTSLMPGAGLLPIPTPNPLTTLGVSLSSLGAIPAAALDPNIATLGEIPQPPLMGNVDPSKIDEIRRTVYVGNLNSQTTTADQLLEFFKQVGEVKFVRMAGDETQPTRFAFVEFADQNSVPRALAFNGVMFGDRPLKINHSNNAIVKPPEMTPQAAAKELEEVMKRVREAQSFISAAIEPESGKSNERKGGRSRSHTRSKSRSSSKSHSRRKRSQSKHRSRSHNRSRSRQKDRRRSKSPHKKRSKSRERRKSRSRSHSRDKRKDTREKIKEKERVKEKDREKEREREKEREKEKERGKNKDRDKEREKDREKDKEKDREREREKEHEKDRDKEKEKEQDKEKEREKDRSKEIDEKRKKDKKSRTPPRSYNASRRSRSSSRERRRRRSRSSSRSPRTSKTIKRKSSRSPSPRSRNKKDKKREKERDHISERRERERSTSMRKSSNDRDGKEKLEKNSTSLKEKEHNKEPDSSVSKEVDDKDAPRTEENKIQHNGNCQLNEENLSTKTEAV
UniProt Q9NQZ5: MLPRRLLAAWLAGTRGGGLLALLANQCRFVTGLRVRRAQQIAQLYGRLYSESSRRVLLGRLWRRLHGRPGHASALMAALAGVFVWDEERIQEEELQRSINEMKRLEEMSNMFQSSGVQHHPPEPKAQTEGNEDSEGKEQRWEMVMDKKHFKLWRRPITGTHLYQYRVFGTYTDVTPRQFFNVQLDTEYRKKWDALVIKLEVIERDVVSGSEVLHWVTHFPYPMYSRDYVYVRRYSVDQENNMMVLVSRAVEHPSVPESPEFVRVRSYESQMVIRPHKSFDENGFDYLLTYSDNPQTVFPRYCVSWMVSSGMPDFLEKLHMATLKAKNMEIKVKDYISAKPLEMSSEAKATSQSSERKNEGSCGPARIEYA
UniProt O95772: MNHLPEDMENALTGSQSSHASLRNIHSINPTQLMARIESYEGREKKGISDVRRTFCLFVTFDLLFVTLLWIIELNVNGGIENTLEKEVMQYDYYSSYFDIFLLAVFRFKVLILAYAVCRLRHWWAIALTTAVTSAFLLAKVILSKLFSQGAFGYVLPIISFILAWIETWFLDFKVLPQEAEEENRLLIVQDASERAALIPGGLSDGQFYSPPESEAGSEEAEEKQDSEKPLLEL
UniProt P16150: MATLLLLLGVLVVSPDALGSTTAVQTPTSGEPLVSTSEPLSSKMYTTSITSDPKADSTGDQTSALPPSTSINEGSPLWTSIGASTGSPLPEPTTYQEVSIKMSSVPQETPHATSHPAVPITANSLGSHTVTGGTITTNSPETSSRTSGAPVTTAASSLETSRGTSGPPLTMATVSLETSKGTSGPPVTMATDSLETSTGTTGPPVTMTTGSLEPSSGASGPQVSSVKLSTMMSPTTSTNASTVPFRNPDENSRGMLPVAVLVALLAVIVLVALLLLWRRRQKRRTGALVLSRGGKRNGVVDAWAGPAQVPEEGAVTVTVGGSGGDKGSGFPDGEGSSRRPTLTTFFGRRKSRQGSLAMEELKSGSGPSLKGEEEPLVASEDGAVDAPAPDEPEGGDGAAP
UniProt P61009: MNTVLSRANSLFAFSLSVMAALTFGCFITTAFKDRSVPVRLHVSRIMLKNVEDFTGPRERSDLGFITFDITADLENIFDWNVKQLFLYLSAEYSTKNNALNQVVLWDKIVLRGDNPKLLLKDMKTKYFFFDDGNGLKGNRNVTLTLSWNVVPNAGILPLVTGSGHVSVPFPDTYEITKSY
UniProt O00506, whole entry, looked up: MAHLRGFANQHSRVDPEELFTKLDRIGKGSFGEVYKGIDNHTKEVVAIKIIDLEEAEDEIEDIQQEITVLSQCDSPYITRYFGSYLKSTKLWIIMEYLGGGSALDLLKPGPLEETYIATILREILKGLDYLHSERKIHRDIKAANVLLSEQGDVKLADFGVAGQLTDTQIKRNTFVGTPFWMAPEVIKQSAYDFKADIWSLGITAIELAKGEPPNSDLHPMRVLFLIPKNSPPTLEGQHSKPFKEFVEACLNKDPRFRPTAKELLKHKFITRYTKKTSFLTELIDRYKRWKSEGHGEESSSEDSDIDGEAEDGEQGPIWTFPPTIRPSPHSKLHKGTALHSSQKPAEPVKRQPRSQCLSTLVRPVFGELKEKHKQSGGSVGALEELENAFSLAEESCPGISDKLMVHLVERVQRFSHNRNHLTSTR
UniProt Q9BWW4: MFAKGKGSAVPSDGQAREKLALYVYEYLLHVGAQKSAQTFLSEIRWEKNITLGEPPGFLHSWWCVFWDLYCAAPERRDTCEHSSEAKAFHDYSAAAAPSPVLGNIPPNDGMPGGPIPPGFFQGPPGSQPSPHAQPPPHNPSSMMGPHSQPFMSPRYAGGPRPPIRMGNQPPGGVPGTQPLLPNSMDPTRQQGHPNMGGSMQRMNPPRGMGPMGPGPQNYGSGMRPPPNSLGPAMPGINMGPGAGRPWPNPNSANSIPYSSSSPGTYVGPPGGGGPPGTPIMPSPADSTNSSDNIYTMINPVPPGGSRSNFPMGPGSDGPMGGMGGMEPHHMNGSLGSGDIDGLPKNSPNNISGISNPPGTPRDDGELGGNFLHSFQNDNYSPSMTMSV
UniProt Q8N3U4: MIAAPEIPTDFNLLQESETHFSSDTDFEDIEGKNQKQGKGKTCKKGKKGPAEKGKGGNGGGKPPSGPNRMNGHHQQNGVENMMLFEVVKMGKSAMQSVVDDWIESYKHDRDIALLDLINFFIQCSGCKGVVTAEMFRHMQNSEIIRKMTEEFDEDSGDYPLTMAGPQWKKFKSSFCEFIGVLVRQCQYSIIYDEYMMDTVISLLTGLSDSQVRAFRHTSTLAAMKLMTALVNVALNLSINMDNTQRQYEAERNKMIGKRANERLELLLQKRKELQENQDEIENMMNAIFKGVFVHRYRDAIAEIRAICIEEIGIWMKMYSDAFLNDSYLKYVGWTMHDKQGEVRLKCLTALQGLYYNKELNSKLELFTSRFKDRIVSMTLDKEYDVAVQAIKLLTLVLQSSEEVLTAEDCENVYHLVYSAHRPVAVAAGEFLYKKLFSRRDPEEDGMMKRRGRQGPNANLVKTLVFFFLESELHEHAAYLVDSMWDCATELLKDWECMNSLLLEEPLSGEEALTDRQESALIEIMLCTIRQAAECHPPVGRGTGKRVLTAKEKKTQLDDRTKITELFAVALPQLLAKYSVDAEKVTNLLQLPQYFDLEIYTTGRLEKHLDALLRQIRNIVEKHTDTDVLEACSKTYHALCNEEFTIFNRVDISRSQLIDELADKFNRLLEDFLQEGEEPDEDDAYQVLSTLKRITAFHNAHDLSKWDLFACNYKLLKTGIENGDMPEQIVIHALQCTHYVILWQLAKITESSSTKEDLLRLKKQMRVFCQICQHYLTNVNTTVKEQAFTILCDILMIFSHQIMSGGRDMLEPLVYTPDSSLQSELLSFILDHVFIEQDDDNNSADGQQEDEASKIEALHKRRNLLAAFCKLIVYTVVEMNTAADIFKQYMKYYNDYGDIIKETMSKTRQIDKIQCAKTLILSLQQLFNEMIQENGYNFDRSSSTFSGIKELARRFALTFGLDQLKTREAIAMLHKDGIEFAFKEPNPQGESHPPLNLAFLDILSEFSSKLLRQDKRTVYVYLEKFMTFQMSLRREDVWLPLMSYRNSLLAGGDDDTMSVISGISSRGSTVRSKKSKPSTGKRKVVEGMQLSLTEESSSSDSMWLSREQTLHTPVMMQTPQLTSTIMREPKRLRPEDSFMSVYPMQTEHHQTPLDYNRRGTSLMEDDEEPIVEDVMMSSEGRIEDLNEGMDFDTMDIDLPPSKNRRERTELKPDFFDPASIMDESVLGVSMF
UniProt O15269: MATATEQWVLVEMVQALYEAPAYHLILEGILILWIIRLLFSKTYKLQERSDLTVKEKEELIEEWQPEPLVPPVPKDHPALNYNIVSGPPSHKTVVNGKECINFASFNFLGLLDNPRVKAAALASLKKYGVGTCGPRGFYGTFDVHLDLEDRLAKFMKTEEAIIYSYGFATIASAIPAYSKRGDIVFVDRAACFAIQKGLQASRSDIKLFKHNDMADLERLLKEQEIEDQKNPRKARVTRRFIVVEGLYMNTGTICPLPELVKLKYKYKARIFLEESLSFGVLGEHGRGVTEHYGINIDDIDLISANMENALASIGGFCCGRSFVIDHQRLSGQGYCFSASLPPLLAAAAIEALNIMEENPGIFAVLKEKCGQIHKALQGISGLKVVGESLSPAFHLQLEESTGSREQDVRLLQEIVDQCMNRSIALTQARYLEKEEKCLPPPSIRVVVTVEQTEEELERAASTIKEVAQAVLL
UniProt P42229: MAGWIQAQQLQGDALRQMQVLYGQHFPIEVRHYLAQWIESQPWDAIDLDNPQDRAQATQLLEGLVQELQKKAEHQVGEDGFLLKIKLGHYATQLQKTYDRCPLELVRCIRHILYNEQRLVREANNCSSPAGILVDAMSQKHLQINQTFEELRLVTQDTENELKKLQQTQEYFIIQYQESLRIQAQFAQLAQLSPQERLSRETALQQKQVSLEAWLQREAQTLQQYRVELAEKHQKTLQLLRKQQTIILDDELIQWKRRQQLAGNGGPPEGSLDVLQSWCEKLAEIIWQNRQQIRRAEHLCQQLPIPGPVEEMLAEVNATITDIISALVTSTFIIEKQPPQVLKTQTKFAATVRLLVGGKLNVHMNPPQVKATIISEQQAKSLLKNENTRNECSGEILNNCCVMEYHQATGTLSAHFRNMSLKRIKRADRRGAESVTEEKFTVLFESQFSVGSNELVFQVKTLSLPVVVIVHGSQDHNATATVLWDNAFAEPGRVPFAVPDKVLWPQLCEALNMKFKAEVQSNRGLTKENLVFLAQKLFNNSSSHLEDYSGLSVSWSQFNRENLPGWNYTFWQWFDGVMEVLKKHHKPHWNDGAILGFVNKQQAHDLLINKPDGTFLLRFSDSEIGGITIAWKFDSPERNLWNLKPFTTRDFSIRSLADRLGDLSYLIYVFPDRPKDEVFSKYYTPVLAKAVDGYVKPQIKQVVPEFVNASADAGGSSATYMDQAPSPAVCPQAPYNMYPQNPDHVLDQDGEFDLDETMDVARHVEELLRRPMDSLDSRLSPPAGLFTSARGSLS
UniProt O43805: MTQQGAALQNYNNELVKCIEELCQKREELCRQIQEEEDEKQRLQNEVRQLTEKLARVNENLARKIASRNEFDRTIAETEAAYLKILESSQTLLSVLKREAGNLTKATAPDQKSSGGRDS
UniProt Q16385, whole entry, looked up: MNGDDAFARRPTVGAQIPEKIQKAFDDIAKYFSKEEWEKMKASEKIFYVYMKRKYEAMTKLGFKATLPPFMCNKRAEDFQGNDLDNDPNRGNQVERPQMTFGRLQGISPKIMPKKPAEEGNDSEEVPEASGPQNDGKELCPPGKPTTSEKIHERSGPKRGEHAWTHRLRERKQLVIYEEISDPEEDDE
UniProt P10124: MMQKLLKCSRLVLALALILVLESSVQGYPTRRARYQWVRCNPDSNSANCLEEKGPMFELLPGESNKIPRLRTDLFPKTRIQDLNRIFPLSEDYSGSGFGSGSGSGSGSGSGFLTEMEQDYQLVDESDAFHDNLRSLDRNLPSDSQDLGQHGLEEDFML
UniProt Q13242, whole entry, looked up: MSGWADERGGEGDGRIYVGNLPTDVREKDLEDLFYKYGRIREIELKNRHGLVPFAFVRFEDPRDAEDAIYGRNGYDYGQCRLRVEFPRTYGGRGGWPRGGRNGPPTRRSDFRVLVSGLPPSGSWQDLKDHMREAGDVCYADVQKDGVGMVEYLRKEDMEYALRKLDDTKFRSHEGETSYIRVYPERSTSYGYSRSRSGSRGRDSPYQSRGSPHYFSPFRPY
UniProt Q8NBT2: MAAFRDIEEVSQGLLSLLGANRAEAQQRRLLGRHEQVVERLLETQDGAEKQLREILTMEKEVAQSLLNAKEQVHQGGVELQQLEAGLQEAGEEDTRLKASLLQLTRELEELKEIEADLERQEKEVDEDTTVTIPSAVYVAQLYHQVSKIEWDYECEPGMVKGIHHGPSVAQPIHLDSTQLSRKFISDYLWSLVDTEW

Experiments:
Assay in all cases: log2 fold change, soluble protein after heating vs DMSO (PISA); higher = thermal stabilisation; K562 cells, 10 uM, 30 min; active = over 0.2 and 3.5 SD of the protein, either way, in both replicates (recomputed)
[1] = compound: C#Cc1cccc(Nc2ncnc3cc(OCCOC)c(OCCOC)cc23)c1 [erlotinib]
How it was run: (§1)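 Soluble protein was defined as the supernatant after 21,000xg for 90 min. It came from K562 cells at 2×10^6 cells/mL given 10 μM compound for 30 min, heated in aliquots for 3 min across 48°C-58°C, pooled, and extracted in PBS with 0.5% NP-40 at 4°C, and was quantified by TMTpro 16plex LC-MS/MS with equalised channel sums. Thermal stability against control samples, from duplicates, is reported as log2 fold change.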

[2] = compound: C/C(=N\NC(=O)C1=CC(=CC=C1)S(=O)(=O)N2CCOCC2)/C3=C(C=CC(=C3)Cl)O
How it was run: as §1

[3] = compound: C1=CC(=C(C=C1Cl)C2=NC3=NC=CN=C3C(=N2)NC4=CC=NC=C4)F
How it was run: as §1

[4] = compound: C1=CC(=CC=C1C2=NC3=C(N2)C=C(C=C3)C(=O)N)OC4=CC=C(C=C4)Cl
How it was run: as §1

[5] = compound: C1=CC2=C(C=CC(=C2)/C=C\3/C(=O)NC(=NCC4=CC=CS4)S3)N=C1
How it was run: as §1

[6] = compound: C1=CC2=NC=CN=C2C=C1/C=C/3\C(=O)NC(=O)S3
How it was run: as §1

[7] = compound: C1=CC=C(C=C1)C2=NC(=C(N2)C3=CC=NC=C3)C4=CC(=C(C=C4)Cl)O
How it was run: as §1

[8] = compound: C1=CC=C2C(=C1)C3=NNC4=CC=CC(=C43)C2=O
How it was run: as §1

[9] = compound: C1CCN(C1)C(=O)NC2=CC=CC(=C2)NC3=NC=C(C(=N3)NCCC4=CN=CN4)Br
How it was run: as §1

[10] = compound: C1CN(CCC1(CC2=CC=C(C=C2)Cl)N)C3=NC=NC4=C3C=CN4
How it was run: as §1

Target | log2 fold change [1] | log2 fold change [2] | log2 fold change [3] | log2 fold change [4] | log2 fold change [5] | log2 fold change [6] | log2 fold change [7] | log2 fold change [8] | log2 fold change [9] | log2 fold change [10]
SRP68 (UniProt Q9UHB9) | inactive: 0.047 | inactive: 0.034 | inactive: -0.043 | inactive: -0.071 | inactive: 0.011 | inactive: 0.01 | inactive: 0.002 | inactive: -0.087 | inactive: 0.015 | inactive: -0.107
SRP19 (UniProt P09132) | inactive: -0.02 | inactive: 0.049 | inactive: 0.045 | inactive: -0.029 | inactive: -0.01 | inactive: 0.014 | inactive: 0.043 | inactive: -0.004 | inactive: -0.008 | inactive: 0.071
SPECC1L (UniProt Q69YQ0) | inactive: 0.021 | inactive: -0.022 | inactive: 0.065 | inactive: -0.026 | inactive: 0.017 | inactive: -0.003 | inactive: 0.102 | inactive: -0.025 | inactive: 0.002 | inactive: 0.009
SREK1 isoform 2 (UniProt Q8WXA9) | inactive: -0.036 | inactive: 0.1 | inactive: -0.019 | inactive: 0.12 | inactive: -0.149 | inactive: -0.084 | inactive: 0.233 | inactive: -0.096 | inactive: -0.126 | inactive: -0.24
STARD7 (UniProt Q9NQZ5) | inactive: -0.021 | inactive: 0.084 | inactive: 0.024 | inactive: 0.086 | inactive: 0.031 | inactive: 0.009 | inactive: 0.017 | inactive: 0.067 | inactive: 0.006 | inactive: -0.029
SQLE (UniProt Q14534) | inactive: -0.002 | inactive: 0.025 | inactive: -0.005 | inactive: 0.009 | inactive: 0.071 | inactive: 0.007 | inactive: 0.03 | inactive: -0.019 | inactive: 0.03 | inactive: 0.026
SQSTM1 (UniProt Q13501) | inactive: -0.058 | inactive: -0.008 | inactive: 0.101 | inactive: 0.037 | inactive: -0.017 | inactive: 0.108 | inactive: -0.004 | inactive: 0.02 | inactive: -0.135 | inactive: -0.045
STARD3NL (UniProt O95772) | inactive: 0.004 | inactive: -0.107 | inactive: -0.004 | inactive: -0.003 | inactive: 0.169 | inactive: 0.048 | inactive: 0.11 | inactive: 0.103 | inactive: -0.013 | inactive: 0.015
SRSF3 (UniProt P84103) | inactive: -0.074 | inactive: -0.03 | inactive: -0.35 | inactive: 0.053 | inactive: -0.074 | inactive: -0.009 | inactive: -0.003 | inactive: 0.006 | inactive: 0.097 | inactive: -0.107
SPN (UniProt P16150) | inactive: 0.067 | inactive: -0.048 | inactive: 0.018 | inactive: 0.013 | inactive: -0.029 | inactive: 0.02 | inactive: -0.046 | inactive: -0.032 | inactive: 0.018 | inactive: 0.159
SPCS3 (UniProt P61009) | inactive: -0.024 | inactive: 0.019 | inactive: -0.021 | inactive: -0.01 | inactive: -0.069 | inactive: 0.021 | inactive: -0.025 | inactive: -0.043 | inactive: 0.022 | inactive: 0.022
STK25 (UniProt O00506) | inactive: 0.081 | inactive: 0.011 | inactive: 0.062 | inactive: -0.009 | inactive: 0.021 | inactive: 0.041 | inactive: -0.025 | inactive: -0.007 | inactive: 0.026 | inactive: 0.011
SPG21 (UniProt Q9NZD8) | inactive: 0.014 | inactive: 0.075 | inactive: -0.08 | inactive: 0.021 | inactive: -0.045 | inactive: 0.054 | inactive: 0.103 | inactive: 0.083 | inactive: -0.032 | inactive: 0.012
SSBP3 (UniProt Q9BWW4) | inactive: -0.027 | inactive: 0.003 | inactive: -0.045 | inactive: 0.059 | inactive: 0.073 | inactive: 0.026 | inactive: -0.009 | inactive: 0.011 | inactive: -0.017 | inactive: 0.01
SRSF11 (UniProt Q05519) | inactive: 0.05 | inactive: 0.191 | inactive: 0.06 | inactive: 0.054 | inactive: -0.049 | inactive: -0.003 | inactive: -0.026 | inactive: -0.003 | inactive: -0.129 | inactive: -0.196
STAG2 (UniProt Q8N3U4) | inactive: -0.01 | inactive: 0.063 | inactive: -0.009 | inactive: 0.006 | inactive: 0.015 | inactive: 0.001 | inactive: -0.014 | inactive: -0.138 | inactive: -0.047 | inactive: 0.007
SPEN (UniProt Q96T58) | inactive: 0.123 | inactive: -0.244 | inactive: -0.053 | inactive: 0.085 | inactive: 0.077 | inactive: -0.074 | inactive: 0.033 | inactive: 0.309 | inactive: -0.091 | inactive: 0.08
SPTLC1 (UniProt O15269) | inactive: 0.032 | inactive: 0.054 | inactive: 0.045 | inactive: -0.049 | inactive: 0.048 | inactive: 0.011 | inactive: 0.006 | inactive: 0.004 | inactive: -0.101 | inactive: 0.024
STAT5A (UniProt P42229) | inactive: 0.033 | inactive: 0.173 | inactive: 0.035 | inactive: 0.048 | inactive: 0.083 | inactive: 0.01 | inactive: 0.06 | inactive: -0.026 | inactive: -0.077 | inactive: -0.028
SSNA1 (UniProt O43805) | inactive: -0.008 | inactive: 0.048 | inactive: 0.047 | inactive: 0.055 | inactive: 0.089 | inactive: 0.048 | inactive: 0.02 | inactive: -0.041 | inactive: -0.01 | inactive: -0.002
STAG1 (UniProt Q8WVM7) | inactive: -0.039 | inactive: 0.167 | inactive: -0.016 | inactive: 0.045 | inactive: 0.033 | inactive: 0.026 | inactive: -0.036 | inactive: -0.071 | inactive: -0.076 | inactive: -0.017
SSX2 (UniProt Q16385) | inactive: -0.068 | inactive: -0.078 | inactive: -0.023 | inactive: 0.038 | inactive: 0.175 | inactive: 0.044 | inactive: -0.032 | inactive: -0.035 | inactive: -0.022 | inactive: -0.004
SPRY4 (UniProt Q9C004) | inactive: 0.003 | inactive: -0.03 | inactive: 0.039 | inactive: 0.03 | inactive: 0.024 | inactive: 0.049 | inactive: 0.073 | inactive: -0.057 | inactive: -0.04 | inactive: 0.027
SRGN (UniProt P10124) | inactive: 0.027 | inactive: -0.025 | inactive: 0.001 | inactive: -0.052 | inactive: -0.024 | inactive: 0.017 | inactive: 0.022 | inactive: 0.009 | inactive: -0.064 | inactive: 0.057
SRRT (UniProt Q9BXP5) | inactive: 0.252 | inactive: 0.157 | inactive: 0.12 | inactive: -0.022 | inactive: 0.137 | inactive: -0.008 | inactive: 0.091 | inactive: 0.054 | inactive: -0.081 | inactive: -0.023
STIP1 isoform 2 (UniProt P31948) | inactive: -0.02 | inactive: 0.015 | inactive: 0.022 | inactive: 0.004 | inactive: -0.012 | inactive: 0.016 | inactive: -0.005 | inactive: 0.009 | inactive: 0.023 | inactive: 0.012
SRA1 (UniProt Q9HD15) | inactive: 0.07 | inactive: 0.041 | inactive: 0.012 | inactive: 0.002 | inactive: 0.028 | inactive: 0.018 | inactive: -0.045 | inactive: -0.008 | inactive: -0.034 | inactive: -0.009
SRSF9 (UniProt Q13242) | inactive: -0.084 | inactive: -0.4 | active: -0.721 | inactive: 0.138 | inactive: -0.211 | inactive: 0.052 | inactive: -0.087 | inactive: -0.229 | – | –
SPC24 (UniProt Q8NBT2) | inactive: -0.012 | inactive: 0.114 | inactive: 0.029 | inactive: 0.022 | inactive: 0.01 | inactive: 0.052 | inactive: 0.089 | inactive: 0.023 | inactive: 0.012 | inactive: -0.112
SPTA1 (UniProt P02549) | inactive: -0.018 | inactive: 0.017 | inactive: -0.238 | inactive: -0.028 | inactive: 0.03 | inactive: 0.004 | inactive: -0.038 | inactive: -0.014 | inactive: -0.074 | inactive: -0.173

Single records, as listed above. Order of values: log2 fold change [1] | log2 fold change [2] | log2 fold change [3] | log2 fold change [4] | log2 fold change [5] | log2 fold change [6] | log2 fold change [7] | log2 fold change [8] | log2 fold change [9] | log2 fold change [10]
SPECC1L (UniProt Q69YQ0) in the list: inactive: 0.021 | inactive: -0.022 | inactive: 0.065 | inactive: -0.026 | inactive: 0.017 | inactive: -0.003 | inactive: 0.102 | inactive: -0.025 | inactive: 0.002 | inactive: 0.009
SQLE (UniProt Q14534) in the list: inactive: -0.002 | inactive: 0.025 | inactive: -0.005 | inactive: 0.009 | inactive: 0.071 | inactive: 0.007 | inactive: 0.03 | inactive: -0.019 | inactive: 0.03 | inactive: 0.026
